Laboratory results published in the supplement of paper PMC8291772.
± gives the standard error. This is one part of the list. This data set is noisy: repeats of one test often differ as much as different tests do.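 The library contained all possible DNA sequences one to five nucleotides in length. General extension ability was assessed against a threshold of the blocked-version mean plus three standard deviations, and the probe detects only chains extended by seven or more dT.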

Amino acid sequences for entries named in this document (tags omitted). A change or cut given only in a name is not applied to a line headed by its entry.
UniProt P06526: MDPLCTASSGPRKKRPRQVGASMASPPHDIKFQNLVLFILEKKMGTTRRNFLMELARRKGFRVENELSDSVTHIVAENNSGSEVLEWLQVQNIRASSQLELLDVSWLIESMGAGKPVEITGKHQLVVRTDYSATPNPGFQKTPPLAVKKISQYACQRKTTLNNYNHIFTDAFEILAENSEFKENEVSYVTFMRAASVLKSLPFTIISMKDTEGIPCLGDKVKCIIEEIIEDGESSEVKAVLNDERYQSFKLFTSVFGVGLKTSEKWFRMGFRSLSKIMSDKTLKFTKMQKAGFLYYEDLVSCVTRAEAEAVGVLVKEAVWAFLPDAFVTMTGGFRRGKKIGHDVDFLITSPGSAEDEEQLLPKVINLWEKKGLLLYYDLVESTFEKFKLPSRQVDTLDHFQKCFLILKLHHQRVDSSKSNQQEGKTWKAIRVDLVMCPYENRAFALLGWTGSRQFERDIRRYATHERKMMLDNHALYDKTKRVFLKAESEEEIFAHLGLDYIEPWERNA

target: terminal deoxynucleotidyl transferase (calf thymus) (UniProt P06526); test: TdT poly-dT extension signal (Cy3 hybridisation fluorescence, uncapped minus capped) (fluorescence a.u.); higher = more efficient initiation of TdT extension; details: initiator chemistry: D-DNA, free 3'-OH (5'-tethered via HEG linker)

Sequence | TdT poly-dT extension signal
AACCG | 2620 ± 390
AAAA | 3730 ± 390
GCATA | 3230 ± 490
AATG | 3060 ± 340
CGTTA | 3120 ± 350
ATACC | 2800 ± 200
TTGCC | 3010 ± 280
CAGT | 4420 ± 220
TGCCA | 3300 ± 290
TTAT | 3430 ± 330
TGTTC | 3180 ± 320
ATGGA | 4070 ± 470
GGTTC | 3410 ± 660
TACCG | 3900 ± 840
GAATG | 4180 ± 340
CTTGG | 4560 ± 860
AGCAC | 3300 ± 300
CTAGC | 3330 ± 380
CGATT | 3030 ± 450
TACA | 3720 ± 420
GCGT | 3430 ± 390
TAATA | 3700 ± 290
ATTAA | 3950 ± 410
CTTCT | 4030 ± 270
GCGTC | 3360 ± 300
AAATT | 4040 ± 310
TATGG | 4390 ± 620
GAGAC | 3390 ± 330

In another format: entries from further up

| Sequence | TdT poly-dT extension signal |
| --- | --- |
| ATTAA | 3950 ± 410 |
| AAATT | 4040 ± 310 |
